Results published in PubChem BioAssay AID2551 (National Center for Advancing Translational Sciences (NCATS), 2010).
About 17,000 (5.5%) of roughly 310,000 compounds were called active. The inconclusive results got no clear call from the source; some entries with a clear call stand among them for comparison. The call rests on the fitted dose curve; in most records, active means well fitted inhibition curve with a large enough effect; inconclusive means small, poorly fitted or top-dose-only effect, or effect the other way; inactive means no such curve, though single readings can be large or run the other way. A potency beside an inconclusive call is a rough fit, not a confirmed value.

Chains of the proteins cited; added tags and fusions are not shown. Lines headed by an entry give the natural chain unless they say otherwise; changes in a name come on top.
UniProt P51450: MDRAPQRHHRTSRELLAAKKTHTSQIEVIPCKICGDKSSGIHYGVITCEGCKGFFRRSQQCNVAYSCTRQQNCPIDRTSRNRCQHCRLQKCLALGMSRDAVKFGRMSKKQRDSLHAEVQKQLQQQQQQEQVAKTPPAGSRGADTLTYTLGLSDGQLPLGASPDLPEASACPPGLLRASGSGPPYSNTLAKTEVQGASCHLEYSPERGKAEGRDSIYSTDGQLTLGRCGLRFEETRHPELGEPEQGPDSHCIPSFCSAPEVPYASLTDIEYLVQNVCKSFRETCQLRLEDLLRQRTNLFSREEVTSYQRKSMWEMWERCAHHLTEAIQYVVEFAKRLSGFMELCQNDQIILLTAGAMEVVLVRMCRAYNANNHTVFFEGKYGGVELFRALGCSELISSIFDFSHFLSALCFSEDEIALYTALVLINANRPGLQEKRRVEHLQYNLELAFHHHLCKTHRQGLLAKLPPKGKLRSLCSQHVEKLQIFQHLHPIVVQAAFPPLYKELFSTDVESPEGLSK

Each molecule was assayed against Nuclear receptor ROR-gamma (Mus musculus) (UniProt P51450) (assay: qHTS for inhibitors of ROR gamma transcriptional activity). Details: Drosophila S2 Gal4-RORgamma UAS-luciferase reporter, 20 h; activity change, negative = inhibition: at 53.6 µM (top of the series).
Procedure, shortened: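 Luciferase reporter read in Schneider cells carrying Gal4-RORγ (mouse) and UAS-Photinus luciferase; cells given compound 1 h before 700 uM copper sulfate induction, then incubated 20 h at ambient temperature.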
Further: nearly all actives have a fitted effect of over 60% in size.
On the % scale 0 is the no-effect control and ±100 the full control effect; potency means the concentration at half of the fitted maximal effect.

Compound | Potency | activity change, negative = inhibition
Clc1cccc(-c2nn3c(-c4ccncc4)nnc3s2)c1 | inconclusive: 0.316 µM [inhibitor, partial curve, poor fit] | –
CC(/C=N/n1c(-c2ccco2)n[nH]c1=S)=C\c1ccco1 | inconclusive: 1 µM [inhibitor, partial curve, poor fit] | –
CCOCCCNc1nc(=S)[nH]c2cc(OC)c(OC)cc12 | inconclusive: 35.5 µM [inhibitor, single point] | –
Cc1c(Cl)cccc1NC(=S)/C(=C(\[O-])c1ccc(Cl)s1)[n+]1ccccc1 | inconclusive: 5.01 µM [inhibitor, single point] | –
COc1ccc2nc(NC(=O)C3CCN(S(=O)(=O)c4cccc5nsnc45)CC3)sc2c1 | inconclusive: 12.6 µM [activator, single point] | –
COc1ccc(C(=O)NC(=S)Nc2cccnc2)cc1Cl | active: 10 µM | –
CCOC(=O)c1c(CN2CCN(C)CC2)n(C)c2cc(Br)c(OC)cc12 | inconclusive: 22.4 µM [inhibitor, single point] | –
CC1CCN(C(=O)Cn2nnc(-c3ccc(C(C)C)cc3)n2)CC1 | inconclusive: 15.8 µM [activator, partial curve] | –
COc1ccc(Cl)cc1NC(=S)NNC(=O)c1cccs1 | inconclusive: 0.1 µM [inhibitor, full curve, poor fit] | –
CCOc1ccccc1C(=O)N/N=C/c1c[nH]c2ccccc12 | active: 15.8 µM | –
CC(C)CC(=O)Nc1nnc(-c2ccco2)s1 | inconclusive: 7.08 µM [activator, partial curve] | –
CC(C)C1N=C2c3ccccc3N=C(SCc3cc(=O)n4cc(Cl)ccc4n3)N2C1=O (centres undefined) | inconclusive: 31.6 µM [inhibitor, single point] | –
COc1ccc(C2=NN(C(N)=S)C(c3ccco3)C2)cc1 (centres undefined) | active: 10 µM | –
COc1cccc(/C=C2\SC(=S)N(CCC(=O)NCCc3ccc(O)cc3)C2=O)c1 | inactive | –
O=C(CSc1nnc(-c2c[nH]c3ccccc23)o1)N(Cc1ccccc1)c1ccc(F)cc1 | inconclusive: 8.91 µM [activator, partial curve] | –
Cc1cccc(-n2ncc(Cl)c(Cl)c2=O)c1 | inconclusive: 20 µM [inhibitor, single point] | –
O=C(O)CCc1ccc(NCc2cccc(Oc3ccccc3)c2)cc1 | inconclusive: 15.8 µM [activator, single point] | –
CCOc1ccc(S(=O)(=O)n2cnc(C)c2)cc1 | inconclusive: 5.62 µM [inhibitor, single point] | –
CC1=C(C#N)C(c2cccnc2)C2=C(CC(c3ccc(Cl)cc3)CC2=O)N1 (centres undefined) | inactive | –
NC(=O)N/N=C/c1cc(Br)ccc1OCC(=O)NCc1ccccc1 | inconclusive: 3.55 µM [activator, full curve] | –
Cc1ccc(S(=O)(=O)c2cc3ccc(O)cc3oc2=O)cc1C | inactive | –
CC(=O)NCCNC(=O)c1ccc(Sc2ccccc2)c([N+](=O)[O-])c1 | inconclusive: 12.6 µM [activator, partial curve, poor fit] | –

Compound | Potency | activity change, negative = inhibition
CC1=C(C(=O)NCc2ccccc2)C(c2cc(Br)cc(Br)c2OC(C)C)NC(=O)N1 (centres undefined) | inconclusive: 35.5 µM [activator, single point] | –
CCCCc1cc2c(cn1)=C(OC(=O)c1cnc3ccccc3n1)C(C)(OC(=O)CC)C(=O)C=2 (centres undefined) | inactive | –
COc1ccc(Cn2c(-c3ccc(OC)cc3)n[nH]c2=S)cc1 | active: 7.94 µM | –
COc1ccc(N2C(=O)CC(Nc3ccc(N4CCOCC4)cc3)C2=O)c(OC)c1 (centres undefined) | inconclusive: 12.6 µM [activator, single point] | –
Cc1onc(-c2ccccc2)c1CNC(=O)Nc1cccc(Cl)c1 | inconclusive: 20 µM [activator, single point] | –
Cc1nc2c(-c3ccc(F)cc3)c(C)nn2c(N2CCOCC2)c1C | – | inactive: 0% [at 10 µM]
CCn1c(O)c(/C=N/n2cnnc2)sc1=S | inconclusive: 35.5 µM [inhibitor, single point] | –
O=C(/C=C/c1cccnc1)c1ccc(F)c(F)c1 | inconclusive: 35.5 µM [inhibitor, single point] | –
CCOc1ccc(CCNC(=O)c2cc3sccc3n2CC)cc1OCC | inconclusive: 15.8 µM [activator, single point] | –
NS(=O)(=O)c1ccc(-c2ccc(/C=C3\NC(=S)NC3=O)o2)cc1 | inactive | –
COc1cc(-c2oc3cc(O)cc(O)c3c(=O)c2OC[C@@H]2OC(O[C@@H]3O[C@@H](C)[C@H](O)[C@@H](O)[C@H]3O)[C@@H](O)[C@H](O)[C@@H]2O)ccc1O (some centres undefined) | inactive | –
O=C(CSc1n[nH]c(=O)[nH]c1=O)NC1CCCCC1 | inactive | –
O=C(Cc1coc2ccc3ccccc3c12)Nc1nnc(C2CC2)s1 | inconclusive: 35.5 µM [inhibitor, single point] | –
O=C(COC(=O)c1cccnc1Nc1cccc(C(F)(F)F)c1)NCCN1C(=O)CSC1=O | inconclusive: 11.2 µM [activator, single point] | –
CC(=O)O[C@@H]1C[C@H]2C(C)(C)C(=O)C=C[C@]2(C)[C@H]2CC[C@@]3(C)[C@H](c4ccoc4)OC(=O)[C@H]4O[C@]43[C@@]21C | inconclusive: 35.5 µM [inhibitor, single point] | –
O=C(NNc1nc2ccccc2s1)C1CC1 | inactive | –
Cn1cccc1/C=N/n1cnnc1 | inactive | –
CCCCN(C)CCNC(=O)c1ccc(Cn2c(=S)[nH]c3ccc(Br)cc3c2=O)cc1 | inconclusive: 22.4 µM [inhibitor, single point] | –
Cc1cc(NC(=O)c2cnn3cccnc23)n(-c2ccccc2)n1 | inconclusive: 5.62 µM [inhibitor, partial curve, poor fit] | –
COc1cc(Br)c(/C=C/c2ccc3cccc(O)c3n2)cc1OC | active: 2.82 µM | –
CCOC(=O)c1cc(-c2ccccc2)nc2c1c(C)nn2-c1ccccn1 | active: 3.98 µM | –
S=C(Nc1cccc(Cl)c1)NC1CCCCC1 | active: 3.55 µM | –

Given as a markdown table: 9 of the compounds above

| Compound | Potency | activity change, negative = inhibition |
| --- | --- | --- |
| CCOCCCNc1nc(=S)[nH]c2cc(OC)c(OC)cc12 | inconclusive: 35.5 µM [inhibitor, single point] | – |
| Cc1c(Cl)cccc1NC(=S)/C(=C(\[O-])c1ccc(Cl)s1)[n+]1ccccc1 | inconclusive: 5.01 µM [inhibitor, single point] | – |
| CC(C)C1N=C2c3ccccc3N=C(SCc3cc(=O)n4cc(Cl)ccc4n3)N2C1=O (centres undefined) | inconclusive: 31.6 µM [inhibitor, single point] | – |
| NC(=O)N/N=C/c1cc(Br)ccc1OCC(=O)NCc1ccccc1 | inconclusive: 3.55 µM [activator, full curve] | – |
| CC1=C(C(=O)NCc2ccccc2)C(c2cc(Br)cc(Br)c2OC(C)C)NC(=O)N1 (centres undefined) | inconclusive: 35.5 µM [activator, single point] | – |
| CCCCc1cc2c(cn1)=C(OC(=O)c1cnc3ccccc3n1)C(C)(OC(=O)CC)C(=O)C=2 (centres undefined) | inactive | – |
| O=C(COC(=O)c1cccnc1Nc1cccc(C(F)(F)F)c1)NCCN1C(=O)CSC1=O | inconclusive: 11.2 µM [activator, single point] | – |
| Cc1cc(NC(=O)c2cnn3cccnc23)n(-c2ccccc2)n1 | inconclusive: 5.62 µM [inhibitor, partial curve, poor fit] | – |
| S=C(Nc1cccc(Cl)c1)NC1CCCCC1 | active: 3.55 µM | – |
